Results on 62 molecules are retold here after PubChem BioAssay AID2685 (National Center for Advancing Translational Sciences (NCATS), 2010).

This is one part of the list. These are further read-outs of the screen, such as a control signal, another cell line or another target. No call is given for them. Most of these compounds were active or inconclusive in the main read-out, so they are no random draw. Potencies come from curve fits of mixed quality, noted in brackets.

A short description of the test: qHTS Assay for Lipid Storage Modulators in Drosophila S3 Cells.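 As to cell number change: cells counted by Cell Tracker Red CMTPX staining in the red channel.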 The settings on record: BODIPY lipid droplet fluorescence, 18-24 h; for cell number change: measured here: cell count max response, cells fed with added oleic acid. In short, it runs like this: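 Drosophila S3 cells loaded with oleic acid (400 uM, as added) and compounds at several concentrations; lipid droplets imaged by 488-nm laser-scanning cytometry, 500–530 nm intensity and object ratio to cell channel. Percent activity normalized to 20 uM Triacsin C.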

Setting [1] is: measured here: cell number channel AC50, cells fed with added oleic acid.
Where [2] appears, read: measured here: lipid fluorescence (Fed channel) AC50, cells fed with added oleic acid.

With `CCOC(=O)c1ccc(NC(=O)CSc2nc(=O)n3cccc(C)c3n2)cc1`, the AC50 under setting [1] is 0.58 µM [rising, full curve]. For the molecule `N#Cc1c2c(c(-c3ccccc3)[nH]c1=O)CCCC2`, the cell number change is -13.3%. Further, the AC50 under setting [2] is 4.61 µM [falling, full curve, poor fit]. As for `CCC1(c2ccccc2)NC(=O)N(CC(=O)NCC2COc3ccccc3O2)C1=O` (stereo not drawn), the cell number change was -25.7%. Turning to `O=S(=O)(N1CCOCC1)N1CCN(c2ccccc2F)CC1`, the AC50 under setting [1] was 3.26 µM [falling, partial curve].

With `O=C(NNC(=S)NC(=O)c1ccccc1[N+](=O)[O-])c1ccccc1[N+](=O)[O-]`, the cell number change is -3.38%. Besides, the AC50 under setting [1] is 1.64 µM [falling, partial curve, poor fit]. Moreover, under setting [2], the half-maximal activity concentration (AC50) was 0.116 µM [falling, full curve, poor fit].

Consider `O=C(CN1CCN(CC(=O)Nc2ccccc2F)CC1)Nc1cccc(F)c1`, for which the cell number change turned out to be 45.8%. Besides, the AC50 under setting [1] was 29.1 µM [rising, single point].

With `COc1cc(-c2noc(CCC(N)=O)n2)cc(OC)c1OC`, the cell number change was -16.5%. With `CCOc1cc2c3c(c1)C1(C(=O)N3C(C)(C)C=C2C)C(C#N)=C(N)Oc2cc(O)ccc21` (stereo not drawn), the cell number change is -65.2%. Also, the AC50 under setting [1] was 29.1 µM [falling, single point]. Also, the half-maximal activity concentration (AC50) under setting [2] was 29.1 µM [falling, single point].

For `COCCCN(CC(=O)Nc1ccc(N2CCOCC2)cc1)S(=O)(=O)c1ccc(Cl)cc1`, the cell number change worked out at 69.6%. For the same molecule, under setting [1], the concentration at half-maximal activity (AC50) was 29.1 µM [rising, single point]. Consider `CCN1C(=O)c2cccc3c(S(=O)(=O)NCC4CCCO4)ccc1c23` (stereo not drawn), for which the cell number change came to 16.8%. For the same molecule, the AC50 under setting [2] was 29.1 µM [rising, single point].

Turning to `CCCCCCSc1ccc([C@H]2N[C@@](C)(C(=O)OC)[C@H]3C(=O)N(C)C(=O)[C@@H]23)cc1`, the concentration at half-maximal activity (AC50) under setting [2] is 0.0082 µM [falling, full curve, poor fit]. Turning to `Cc1ccc(S(=O)(=O)CCC(=O)c2cccc([N+](=O)[O-])c2)cc1`, the cell number change is -73.9%. Under setting [1], the concentration at half-maximal activity (AC50) is 11.2 µM [falling, partial curve]. For `Nc1cc(Cl)c(N)cc1Cl`, the cell number change worked out at 2.29%. The AC50 under setting [2] was 1.64 µM [falling, full curve].

For the molecule `O=C(O)CC(NC(=O)OCc1ccccc1)c1ccc(Br)cc1` (stereo not drawn), the cell number change is -17%. Further, the AC50 under setting [2] was 0.116 µM [falling, full curve, poor fit].

In the case of `CC(=O)Nc1cccc(NC(=O)c2cccc(-c3ccc(O)cc3)c2)c1`, the cell number change is -8.55%. The same measure, in the same setting: the same measure for `COc1ccc(-c2nsc(SCC(=O)Nc3ccc4c(c3)OCO4)n2)cc1`: 23.3%. For `Cc1ccccc1C(=O)NNc1ccc([N+](=O)[O-])cc1`, the cell number change amounted to 0.972%. Moreover, the AC50 under setting [2] is 7.31 µM [falling, partial curve]. In the case of `CCOc1ccc(S(=O)(=O)NCCC(=O)OCC(=O)N2CC(=O)Nc3ccccc32)cc1`, the cell number change turned out to be 12.3%.

As for `CC1=NN(C(C#N)c2ccccc2)C(c2ccccc2)C1` (stereo not drawn), the cell number change was found to be 23.8%. Moreover, under setting [2], the AC50 is 29.1 µM [rising, single point]. As for `Cc1ccc(CNc2ccc(N3C(=O)CCCC3=O)cc2[N+](=O)[O-])cc1`, the cell number change came out at 2.89%. Besides, under setting [2], the AC50 was 14.6 µM [rising, single point].

For `Cc1ccc(S(=O)(=O)N2CCC(C(=O)NCCc3ccc(S(N)(=O)=O)cc3)CC2)cc1`, the cell number change is -31%. For the same molecule, under setting [1], the AC50 was 3.66 µM [falling, full curve]. Also, the AC50 under setting [2] is 3.66 µM [falling, full curve].

In the case of `O=C(NNS(=O)(=O)c1ccccc1F)c1cccc(S(=O)(=O)N2CCOCC2)c1`, the cell number change was 45%. In addition, the AC50 under setting [1] is 16.4 µM [rising, single point]. Moreover, the concentration at half-maximal activity (AC50) under setting [2] is 0.116 µM [falling, full curve, poor fit]. Regarding `COc1ccc(C(=O)OCC(N)=O)cc1[N+](=O)[O-]`, the AC50 under setting [2] is 0.58 µM [rising, partial curve, poor fit]. Regarding `S=C(NCc1ccccc1)Nc1ccc2ccccc2c1`, the cell number change was found to be 5.49%. Turning to `O=C(CN1CCN(c2cccc(Cl)c2)CC1)c1ccc(O)cc1O`, the cell number change was -17%. Moreover, the AC50 under setting [2] was 29.1 µM [falling, single point]. Take `CC(=O)N1CCN(S(=O)(=O)c2cccc(C(=O)NC3CC3)c2)CC1`: the cell number change was -8.96%. Also, the AC50 under setting [1] is 0.411 µM [falling, full curve, poor fit]. In the case of `CN(CCCNC(=O)c1nn(C)c2c1CS(=O)(=O)c1ccccc1-2)Cc1ccccc1`, the cell number change turned out to be 17.9%. Take `NC(=O)C1(N2CCCCC2)CCN(Cc2nc3ccccc3c(=O)[nH]2)CC1`: the cell number change amounted to 37%. Further, the concentration at half-maximal activity (AC50) under setting [1] was 20.6 µM [rising, single point]. Regarding `O=C(O)c1c(-c2ccc(Cl)cc2)cn2ccccc12`, under setting [2], the concentration at half-maximal activity (AC50) is 3.26 µM [falling, partial curve, poor fit]. On to `CC(=O)Nc1ccc(Oc2cc(C#N)c(C#N)cc2N2CCCCCC2)cc1`, for which the cell number change is -6.44%. In addition, under setting [2], the AC50 was 13 µM [falling, single point]. Consider `O=C(O)C1SCCN1S(=O)(=O)c1ccc(N=NN2CCOCC2)cc1` (stereo not drawn), for which the cell number change is -13.2%. Also, the concentration at half-maximal activity (AC50) under setting [2] was 14.6 µM [falling, single point]. For `O=C1Cc2ccccc2Sc2ccc(O)cc21`, the cell number change was -30.6%. In addition, the AC50 under setting [1] is 0.164 µM [falling, full curve]. Besides, the AC50 under setting [2] was 0.82 µM [falling, full curve, poor fit]. Turning to `COc1ccc(NC(=O)C(Cl)=C(Cl)Cl)cn1`, the cell number change was -5.22%. The AC50 under setting [2] was 0.0231 µM [falling, full curve, poor fit]. `CCOC(=O)CNCCC(=O)c1ccc(Br)cc1`: the cell number change was -5.62%. For the same molecule, the concentration at half-maximal activity (AC50) under setting [2] was 0.411 µM [falling, full curve, poor fit]. Turning to `C=CCn1c(SCC(=O)c2ccc(Cl)cc2)nnc1-c1ccc2c(c1)OCO2`, the cell number change was found to be 16.3%. For the same molecule, the half-maximal activity concentration (AC50) under setting [2] is 3.66 µM [rising, full curve, poor fit]. As for `CC1CCN(C(=O)CSc2nc3cccnc3n2C)CC1`, the cell number change worked out at 31.4%.

`CCc1nnc(NC(=O)c2cccnc2)s1`: the cell number change worked out at 39.5%. Under setting [1], the concentration at half-maximal activity (AC50) was 29.1 µM [rising, single point].

Turning to `COc1ccc(CCN2C(=NC(=O)CC(C)C)SC3CS(=O)(=O)CC32)cc1OC` (stereo not drawn), the cell number change was -3.63%. In addition, the half-maximal activity concentration (AC50) under setting [2] is 2.06 µM [falling, single point]. For the molecule `CCOC(=O)Cc1csc(NC(=O)Nc2cccs2)n1`, the cell number change is -18.7%. Further, the AC50 under setting [2] was 0.00517 µM [falling, full curve, poor fit].

As to `COCCNC(=O)C(c1ccc(C)o1)N(C(=O)c1snc(C(N)=O)c1N)c1ccc(C)c(C)c1` (stereo not drawn), the cell number change was -3.02%.

Consider `COc1cccc(C(=O)NOCc2ccc(C)cc2)c1OC`, for which the cell number change was -7.57%. Further, under setting [2], the AC50 is 0.731 µM [rising, single point].

As to `CCN(CC)CCc1c(C)[nH]c(C(=O)OCc2ccccc2)c1C`, the cell number change is 24.6%. Further, under setting [1], the AC50 is 0.184 µM [rising, full curve, poor fit]. On to `O=C(O)c1cnn2cc(-c3[nH]ncc3[N+](=O)[O-])cnc12`, for which the cell number change was 31.8%. Further, the AC50 under setting [1] was 20.6 µM [rising, single point]. Also, the AC50 under setting [2] is 2.06 µM [rising, full curve, poor fit]. Turning to `COc1ccc(S(=O)(=O)c2ccc(OC)cc2)cc1`, the cell number change is 22.8%. In addition, the AC50 under setting [2] was 0.82 µM [falling, single point]. Turning to `Cn1c(=O)c2c(nc(CN3CCN(c4ccccc4)CC3)n2Cc2ccccc2F)n(C)c1=O`, the cell number change was -11%. Also, the AC50 under setting [2] was 16.4 µM [rising, partial curve]. As to `Cc1ccnc(N2C(=O)c3ccccc3C2Nc2ccc3c(c2)OCCO3)c1` (stereo not drawn), the cell number change was -11.6%. For the same molecule, under setting [2], the half-maximal activity concentration (AC50) was 32.6 µM [falling, single point]. Turning to `C/C(=N\NS(=O)(=O)c1ccc(Br)cc1)c1ccc2c(c1)OCO2`, the cell number change stood at 19.8%. Besides, the concentration at half-maximal activity (AC50) under setting [2] is 29.1 µM [rising, single point]. For `CNC(=O)c1c(NC(=O)c2ccc(S(=O)(=O)N3CCCc4ccccc43)cc2)sc2c1CCN(C)C2`, the cell number change was -26.1%. Under setting [1], the half-maximal activity concentration (AC50) is 0.651 µM [falling, full curve]. Moreover, under setting [2], the AC50 was 0.146 µM [falling, full curve].

On to `CNC(=O)CSc1nnc(-c2ccco2)n1-c1ccccc1`, for which the cell number change was determined as 0.552%.

With `Cc1ccc(S(=O)(=O)N(C)C)cc1NC(=O)COC(=O)c1ccc2ccccc2n1`, the cell number change is -3.55%. Besides, the concentration at half-maximal activity (AC50) under setting [2] is 3.26 µM [falling, partial curve, poor fit].

For the molecule `O=C(NNC1=NCCC1)C1CC1`, the cell number change stood at 29.2%. Turning to `COc1cc([N+](=O)[O-])ccc1NC(=O)COC(=O)c1ccc(NC(N)=O)cc1`, the cell number change stood at 17.2%. Under setting [2], the AC50 was 0.326 µM [rising, full curve]. Regarding `COc1ccc(OC)c(C2=NOC(C(=O)Nc3cc(C)nn3-c3ccccc3)C2)c1` (stereo not drawn), the cell number change amounted to 6.51%. The AC50 under setting [2] is 0.0731 µM [rising, full curve, poor fit].

For `CN(CC(=O)Nc1ccc(Cl)c(Cl)c1)CC(=O)Nc1ccc2c(c1)OCO2`, the cell number change is -3.49%. As to `COc1ccc(Cl)cc1NC(=O)CN(C)C(=O)c1ccc(C)s1`, under setting [2], the concentration at half-maximal activity (AC50) was 1.46 µM [rising, partial curve]. Consider `Cc1cccc(-c2nsc(SCC(=O)N3CCCC3)n2)c1`, for which the cell number change was -20.5%. Also, the AC50 under setting [2] is 23.1 µM [falling, single point]. Regarding `COc1cccc(CNCc2cccc(Br)c2)c1OC`, the cell number change was -4.03%. For the same molecule, the AC50 under setting [1] is 0.00461 µM [falling, full curve, poor fit]. Consider `CC(=O)N1CCC[C@H]1C(=O)O`, for which the concentration at half-maximal activity (AC50) is, setting by setting: under setting [1], 0.651 µM [rising, full curve]; under setting [2], 0.92 µM [rising, full curve].

Take `Cc1ccc(NC(=O)c2nc[nH]c2C(=O)N[C@@H](C)C(=O)OC(C)(C)C)cc1`: the cell number change is -47.7%. Also, the concentration at half-maximal activity (AC50) under setting [1] is 32.6 µM [falling, single point]. Further, the AC50 under setting [2] was 29.1 µM [falling, single point].

`COc1ccc(-c2csc(NC(=O)CSc3nnc(Nc4ccccc4C)s3)n2)cc1`: the cell number change was 47.5%.

As to `O=C(C1CC1)N1CCN(c2ccc([N+](=O)[O-])cc2-n2cccc2)CC1`, the cell number change is -25.8%. The AC50 under setting [1] was 4.11 µM [falling, full curve, poor fit]. Also, under setting [2], the AC50 is 16.4 µM [falling, single point].

On to `Cc1ncc(S(=O)(=O)c2ccccc2)c(-c2ccccc2)n1`, for which, under setting [2], the concentration at half-maximal activity (AC50) is 1.64 µM [falling, partial curve].
